The values that follow come from the supplement of paper PMC4604168 (melanoma cell lines).

Molecules are shown by their SMILES. The list shows a part of the results. Single values are uncertain, as repeats are few or missing.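 Cells were imaged in 1,536-well plates, and nuclei stained with an antibody against cleaved PARP were counted against all DNA-stained nuclei to give the apoptosis fraction. Screening doses were chosen to leave most cells alive, and resting and induced cleaved-PARP levels differ strongly between cell lines.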

This experiment relates to CBRC014 (line from a melanoma biopsy). The experiment in a line: cleaved PARP positive nuclei fraction relative to DMSO control; melanoma cells; higher = more apoptosis. The following applies: library dose: low library concentration; 72 h.
As to `CN(c1ncccc1CNc1nc(Nc2ccc3c(c2)CC(=O)N3)ncc1C(F)(F)F)S(C)(=O)=O` + Cn1c(=O)n(-c2ccc(C(C)(C)C#N)cc2)c2c3cc(-c4cnc5ccccc5c4)ccc3ncc21 [NVP-BEZ235] (first compound 0.08 µM, partner dose 0.004 µM), the “cleaved PARP positive nuclei fraction” value was 139%. As for `NC(=O)c1ccc(N(C(N)=O)c2c(F)cccc2F)nc1-c1ccc(F)cc1F` + CC(=O)c1c(C)c2cnc(Nc3ccc(N4CCNCC4)cn3)nc2n(C2CCCC2)c1=O [palbociclib] (first compound 0.4 µM, partner dose 0.04 µM), the figure is 107%; as for `CN(c1ncccc1CNc1nc(Nc2ccc3c(c2)CC(=O)N3)ncc1C(F)(F)F)S(C)(=O)=O` + CCCS(=O)(=O)Nc1ccc(F)c(C(=O)c2c[nH]c3ncc(Cl)cc23)c1F [PLX4720] (first compound 0.08 µM, partner dose 0.08 µM), 129%.

On to `CCCCCCCCc1ccc(CCC(N)(CO)CO)cc1` [fingolimod] + Nc1nc(F)nc2c1ncn2[C@@H]1O[C@H](CO)[C@@H](O)[C@@H]1O [fludarabine] (first compound 2 µM, partner dose 0.2 µM), for which the “cleaved PARP positive nuclei fraction” value was 104%. The result for `CCCCCCCCc1ccc(CCC(N)(CO)CO)cc1` [fingolimod] + CC(=O)c1c(C)c2cnc(Nc3ccc(N4CCNCC4)cn3)nc2n(C2CCCC2)c1=O [palbociclib] (first compound 2 µM, partner dose 0.04 µM) reads 113%.

Turning to `CC(=O)O[C@@]12CO[C@@H]1C[C@H](O)[C@@]1(C)C(=O)[C@H](O)C3=C(C)[C@@H](OC(=O)[C@H](O)[C@@H](NC(=O)OC(C)(C)C)c4ccccc4)C[C@@](O)([C@@H](OC(=O)c4ccccc4)[C@H]21)C3(C)C` [Docetaxel] + Cc1cc(Nc2cc(N3CCN(C)CC3)nc(/C=C/c3ccccc3)n2)n[nH]1 [ENMD2076] (first compound 0.0001 µM, partner dose 0.04 µM), the “cleaved PARP positive nuclei fraction” value stood at 116%. The result for `CC1(C)CCC(c2ccc(Cl)cc2)=C(CN2CCN(c3ccc(C(=O)NS(=O)(=O)c4ccc(N[C@H](CCN5CCOCC5)CSc5ccccc5)c(S(=O)(=O)C(F)(F)F)c4)cc3)CC2)C1` + CCCS(=O)(=O)Nc1ccc(F)c(C(=O)c2c[nH]c3ncc(Cl)cc23)c1F [PLX4720] (first compound 0.4 µM, partner dose 0.08 µM) reads 527%; that for `CC(=O)O[C@@]12CO[C@@H]1C[C@H](O)[C@@]1(C)C(=O)[C@H](O)C3=C(C)[C@@H](OC(=O)[C@H](O)[C@@H](NC(=O)OC(C)(C)C)c4ccccc4)C[C@@](O)([C@@H](OC(=O)c4ccccc4)[C@H]21)C3(C)C` [Docetaxel] + Cn1c(Nc2ccc(C(F)(F)F)cc2)nc2cc(Oc3ccnc(-c4ncc(C(F)(F)F)[nH]4)c3)ccc21 [CHIR265] (first compound 0.0001 µM, partner dose 0.08 µM), 229%; that for `Cn1sc(=O)n(Cc2ccccc2)c1=O` + CC(C)C[C@H](NC(=O)[C@H](Cc1ccccc1)NC(=O)c1cnccn1)B(O)O [Bortezomib] (first compound 0.4 µM, partner dose 0.001 µM), 133%. In the case of `COc1ccc(C2=N[C@@H](c3ccc(Cl)cc3)[C@@H](c3ccc(Cl)cc3)N2C(=O)N2CCNC(=O)C2)c(OC(C)C)c1` [Nutlin-3] + C=CCNC1=C2C[C@@H](C)C[C@H](OC)[C@H](O)[C@@H](C)/C=C(\C)[C@H](OC(N)=O)[C@@H](OC)/C=C\C=C(/C)C(=O)NC(=CC1=O)C2=O [Tanespimycin] (first compound 0.1 µM, partner dose 0.002 µM), the “cleaved PARP positive nuclei fraction” value amounted to 123%. As for `C[C@@H](N)c1ccc(C(=O)Nc2ccnc3[nH]ccc23)cc1` + CC(C)C[C@H](NC(=O)[C@H](Cc1ccccc1)NC(=O)c1cnccn1)B(O)O [Bortezomib] (first compound 0.4 µM, partner dose 0.001 µM), the figure is 295%.

For the compound `C[C@]1(O)C[C@@H](c2nc(-c3ccc4ccc(-c5ccccc5)nc4c3)c3c(N)nccn32)C1` + CS(=O)(=O)CCNCc1ccc(-c2ccc3ncnc(Nc4ccc(OCc5cccc(F)c5)c(Cl)c4)c3c2)o1 [lapatinib] (first compound 0.4 µM, partner dose 0.8 µM), the “cleaved PARP positive nuclei fraction” value worked out at 107%.
